This is one part of the list.

Protein sequences, listed by entry. Tags and fused reporters are not part of them.
UniProt Q0JBA9, entry or part of it: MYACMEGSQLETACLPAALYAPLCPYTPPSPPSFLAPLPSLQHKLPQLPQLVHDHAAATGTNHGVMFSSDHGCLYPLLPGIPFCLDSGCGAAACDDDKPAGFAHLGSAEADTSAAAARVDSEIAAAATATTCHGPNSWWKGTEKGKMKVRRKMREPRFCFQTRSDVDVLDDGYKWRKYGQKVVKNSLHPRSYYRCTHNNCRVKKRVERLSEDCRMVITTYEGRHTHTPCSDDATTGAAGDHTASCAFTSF

The results in this text go back to PMC7819943, “Rice protein-binding microarrays: a tool to detect cis-acting elements near promoter regions in rice”.

The target in the test is OsWRKY34 (Oryza sativa, UniProt Q0JBA9 1-250). Nature of the test: protein-binding microarray (RPBM); PBS, 2% BSA, 51.3 ng/ul salmon testes DNA, 50 uM zinc acetate, 200 nM TF, 25 C, 1 h; high values mean tight binding. The note with it: protein: recombinant; tags: N-terminal polyhistidine and DsRed monomer fusion (pET32a); label: CyDye5-dUTP incorporated in the synthesized complementary strand; 3' TTTTT single-stranded linker to array surface; dsDNA, one strand shown. The method in brief:
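Per-feature fluorescence intensity (arbitrary units), read on an Axon 4000B scanner, is the binding signal. Transcription factors carrying an N-terminal polyhistidine tag and DsRed fusion were expressed in E. coli BL21-CodonPlus and purified on Ni–NTA. A custom Agilent array, made double-stranded by primer extension with Cy5-dUTP and blocked with 2% BSA, was incubated with 200 nM protein in PBS, 2% BSA, salmon testes DNA and 50 µM zinc acetate at 25 °C for 1 h and then washed.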
Take “TCTACACAATTCAAAATCCGGCCCTGTTTATTTTGTACTACGGAGTCACCTAGTGCAG”: the binding signal was 8420 fluorescence intensity (a.u.). Then “ACTTGTCACTGTCAGTCTTGGACCCAAATGCCATAAGTCACGGAGTCACCTAGTGCAG”, with 11100 fluorescence intensity (a.u.). For “ACTAGACTGTATTTACTCGTGTACAGTACATGTGTACTTTCGGAGTCACCTAGTGCAG” the value was 8210 fluorescence intensity (a.u.). Then “GGCTGTGTATTAAGTATGTTTGCATTGTAATTCTCTTTTTCGGAGTCACCTAGTGCAG”, with 11600 fluorescence intensity (a.u.); and “TCATAGAAGCATGCTCACGGTTAACCTGGTATTCACTCTTCGGAGTCACCTAGTGCAG”, with 9130 fluorescence intensity (a.u.); and “TAGGGCCCAGCCCAGAGGGCAGTGTTGACCAGCTTTGACCCGGAGTCACCTAGTGCAG”, with 8920 fluorescence intensity (a.u.). For the sequence “CTGTCTTGCTATGTATGTGTACACCAATTTTAATATACGACGGAGTCACCTAGTGCAG”, the binding signal was 11500 fluorescence intensity (a.u.). Take “GCCGTCCGTCGTCCTCCCGCTGCCGCCGCCGCGCGCGTCGCGGAGTCACCTAGTGCAG”: the binding signal was 8120 fluorescence intensity (a.u.). For “GTTACCGAAGTTTTACTTTATACCATATGTACTCTATCTACGGAGTCACCTAGTGCAG” the value was 8060 fluorescence intensity (a.u.). Take “CCTCCTCCACACATCCCTAACCCACCACATCCAAACCCCTCGGAGTCACCTAGTGCAG”: the binding signal is 8730 fluorescence intensity (a.u.). Then “CCCCGCAGTTCTATTTTGATACGAGCGGCTATGCTTTTACCGGAGTCACCTAGTGCAG”, with 8270 fluorescence intensity (a.u.); and “CTTGCTTCTCGCTTGGCGTTCATGGTGTCGTGCAAACCCTCGGAGTCACCTAGTGCAG”, with 10100 fluorescence intensity (a.u.). With “CCGAGGTCGTAGGTTTTTCTTGCTTCTTCTTCTTCTTCTTCGGAGTCACCTAGTGCAG”, the binding signal is 10600 fluorescence intensity (a.u.). For “CGATCGTACTTTCTGGTGTACATAGTATCTGCACTTTTTCCGGAGTCACCTAGTGCAG” the value was 10200 fluorescence intensity (a.u.). Take “AGTATTTTTGGTTCTTTCACAAACAGTACTTTTAAATTCACGGAGTCACCTAGTGCAG”: the binding signal is 8090 fluorescence intensity (a.u.). For “TATCTATCTAGCTCGATCCATCACTCCATCACTCATCAAGCGGAGTCACCTAGTGCAG” the value was 9680 fluorescence intensity (a.u.); for “TCCCTCCGTCCGTACTGCACTCTCGCTCGTTCCCCTCGCACGGAGTCACCTAGTGCAG”, 11500 fluorescence intensity (a.u.); for “CTCTCTCCGATCCGGATCTTCCTACCCACTCCGGCGAGCCCGGAGTCACCTAGTGCAG”, 12900 fluorescence intensity (a.u.).

On to “TCTTTTGGTCTTCTGCTCTTGTGCAGTTTCCACGCGCACCCGGAGTCACCTAGTGCAG”, for which the binding signal is 9360 fluorescence intensity (a.u.). Regarding “ACTTTATATTGGCCCACATTATATTTTTAAAATTTTGAGACGGAGTCACCTAGTGCAG”, the binding signal was 8720 fluorescence intensity (a.u.).

As for “CTCTCCGTTTGTCATGAATAATTGGTCTTGTTTTTCTAACCGGAGTCACCTAGTGCAG”, the binding signal was 12600 fluorescence intensity (a.u.).

Consider “GTTCTCACACTTCAGATTGTTATGTTTGGCTATGCTGTCTCGGAGTCACCTAGTGCAG”, for which the binding signal was 9600 fluorescence intensity (a.u.). With “AGTACTAGGGTGGTGTTATTTTCTCATGAAGATGAAGATTCGGAGTCACCTAGTGCAG”, the binding signal was 11700 fluorescence intensity (a.u.). In the case of “CATCTTCCAGGACGTCACCTTCACTTCGCTTCGCCTCTGCCGGAGTCACCTAGTGCAG”, the binding signal is 8520 fluorescence intensity (a.u.). As to “TCTTTCTCTACACCCACCCATAGACCACATCGCCCTTGATCGGAGTCACCTAGTGCAG”, the binding signal is 11500 fluorescence intensity (a.u.). Regarding “TGCCAAAGCTCTATCCATTTTGCCTCTACTCAATCGTCCACGGAGTCACCTAGTGCAG”, the binding signal is 10200 fluorescence intensity (a.u.). On to “GACATAGAACCCAACTTTCCATTCTTTTGATTGTTTTTGGCGGAGTCACCTAGTGCAG”, for which the binding signal is 8390 fluorescence intensity (a.u.). For “CTAGTAATTTGGTGTGGGATTTGTTGTTTACTTGTTTTCACGGAGTCACCTAGTGCAG” the value was 9290 fluorescence intensity (a.u.); for “GTCACCTCTCCTTCATCCGGATAAGCTCAAGATCTCTTTCCGGAGTCACCTAGTGCAG”, 8170 fluorescence intensity (a.u.); for “GTGGGTTCGTGTGCTCTCTCGCTCCTGCCATTGGTTGATGCGGAGTCACCTAGTGCAG”, 8580 fluorescence intensity (a.u.). For “TCACAGCGGACCTGCTTCTTCGATTTGCTCATGGAGAATGCGGAGTCACCTAGTGCAG” the value was 8280 fluorescence intensity (a.u.); for “CTTTACAATATTTATCATTCGTTCTACTCTTCAATTATTTCGGAGTCACCTAGTGCAG”, 8090 fluorescence intensity (a.u.); for “CAATCGCTGTCATCTCATCTCCCAACCTTTTTTTTCTTACCGGAGTCACCTAGTGCAG”, 9710 fluorescence intensity (a.u.). Then “CGTGAGGACTCGTATATCTTCTTCCTGCTATAACATCTCACGGAGTCACCTAGTGCAG”, with 8660 fluorescence intensity (a.u.); and “GTCCATCCCTATCTCACTCGGTCGGTGCTAGTACTGCTTCCGGAGTCACCTAGTGCAG”, with 9500 fluorescence intensity (a.u.); and “CTGCCGCTTTATCTCTGCCCTTCGTCTGACATCTACGCGTCGGAGTCACCTAGTGCAG”, with 8260 fluorescence intensity (a.u.). As to “GCTAAGATTTTCGCATGTGGCCAGTAGCCCAGTACTAAACCGGAGTCACCTAGTGCAG”, the binding signal was 8590 fluorescence intensity (a.u.). Then “GGTTTGACCGCGCGTCGCATCCCGTCATCCCCGTGCGTCGCGGAGTCACCTAGTGCAG”, with 8860 fluorescence intensity (a.u.); and “GCGGCACACCCAAATGCACCACGTGGACGGACATTTAGCACGGAGTCACCTAGTGCAG”, with 8590 fluorescence intensity (a.u.); and “GAACACGGCACCATCACCGTCACTCTTCCCGCTTCACAGTCGGAGTCACCTAGTGCAG”, with 9700 fluorescence intensity (a.u.). Then “ATGACCACCGTGCATGCCCTTATAGTCTCAATTTACTTATCGGAGTCACCTAGTGCAG”, with 8180 fluorescence intensity (a.u.); and “ACTCACTTGTCGACAGAATCATTGATTTTTCCTTTTATGACGGAGTCACCTAGTGCAG”, with 8200 fluorescence intensity (a.u.).
